The source of these data is patent publication US20100135904A1.

The chains behind the UniProt entries cited, without tags or fusion partners. Residues count along the entry.
UniProt P20029, residues 20-655: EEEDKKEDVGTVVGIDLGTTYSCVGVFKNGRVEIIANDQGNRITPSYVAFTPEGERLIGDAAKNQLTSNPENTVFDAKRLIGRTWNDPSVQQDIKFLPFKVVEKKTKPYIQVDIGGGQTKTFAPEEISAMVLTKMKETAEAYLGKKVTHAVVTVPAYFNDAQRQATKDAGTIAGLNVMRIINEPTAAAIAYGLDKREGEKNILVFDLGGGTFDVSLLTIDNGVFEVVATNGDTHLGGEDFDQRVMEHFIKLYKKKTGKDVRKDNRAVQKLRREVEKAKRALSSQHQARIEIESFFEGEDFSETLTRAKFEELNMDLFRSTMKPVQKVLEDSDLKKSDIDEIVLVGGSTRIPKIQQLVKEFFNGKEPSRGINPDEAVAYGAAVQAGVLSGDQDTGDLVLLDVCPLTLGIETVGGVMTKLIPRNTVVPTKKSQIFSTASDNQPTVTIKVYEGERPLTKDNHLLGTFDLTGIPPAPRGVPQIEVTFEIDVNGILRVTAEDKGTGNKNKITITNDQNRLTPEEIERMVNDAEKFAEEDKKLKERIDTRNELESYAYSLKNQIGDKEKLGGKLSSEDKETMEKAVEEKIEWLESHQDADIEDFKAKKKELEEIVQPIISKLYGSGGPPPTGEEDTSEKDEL
UniProt P51865, residues 18-134: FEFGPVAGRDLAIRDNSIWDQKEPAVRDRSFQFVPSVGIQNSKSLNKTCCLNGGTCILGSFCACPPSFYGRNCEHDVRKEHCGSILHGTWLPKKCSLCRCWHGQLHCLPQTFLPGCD

This assay addresses endogenous GRP78 of mouse embryonal carcinoma P19 cells (mouse) (UniProt P20029). Nature of the assay: co-immunoprecipitation of endogenous proteins from surface-biotinylated P19 cells.

These are yes or no findings as the source states them, for the method shown. Binding seen in cells or lysates may run through a third protein. Some entries that bind do so weakly or less than the wild type.

Turning to “endogenous Cripto of mouse embryonal carcinoma P19 cells (from UniProt P51865 18-134) (ligand)”, the binding entry is “binds”.
